# Measured values: doi:10.1101/155614
# These are yes or no findings as the source states them, for the method shown. Binding calls can cover weak binding; strength is not graded here.
# Biological target: T1, mature GDF8 (growth/differentiation factor 8, myostatin), unbound mature ligand (UniProt O14793)
# T1 sequence: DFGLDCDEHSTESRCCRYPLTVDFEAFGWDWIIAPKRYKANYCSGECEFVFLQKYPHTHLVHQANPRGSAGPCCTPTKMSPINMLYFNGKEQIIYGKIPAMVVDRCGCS
# Assay: SEC
substance,measurement,value
"GDF8 prodomain, mammalian derived (domain or fragment)",binding,binds
